From doi:10.1101/2022.11.01.514535 come the findings set out here.

The chains behind the UniProt entries cited, without tags or fusion partners. Where a name states a change or a piece, a line headed by the entry shows the natural chain unless it says otherwise.
UniProt P0DMV8: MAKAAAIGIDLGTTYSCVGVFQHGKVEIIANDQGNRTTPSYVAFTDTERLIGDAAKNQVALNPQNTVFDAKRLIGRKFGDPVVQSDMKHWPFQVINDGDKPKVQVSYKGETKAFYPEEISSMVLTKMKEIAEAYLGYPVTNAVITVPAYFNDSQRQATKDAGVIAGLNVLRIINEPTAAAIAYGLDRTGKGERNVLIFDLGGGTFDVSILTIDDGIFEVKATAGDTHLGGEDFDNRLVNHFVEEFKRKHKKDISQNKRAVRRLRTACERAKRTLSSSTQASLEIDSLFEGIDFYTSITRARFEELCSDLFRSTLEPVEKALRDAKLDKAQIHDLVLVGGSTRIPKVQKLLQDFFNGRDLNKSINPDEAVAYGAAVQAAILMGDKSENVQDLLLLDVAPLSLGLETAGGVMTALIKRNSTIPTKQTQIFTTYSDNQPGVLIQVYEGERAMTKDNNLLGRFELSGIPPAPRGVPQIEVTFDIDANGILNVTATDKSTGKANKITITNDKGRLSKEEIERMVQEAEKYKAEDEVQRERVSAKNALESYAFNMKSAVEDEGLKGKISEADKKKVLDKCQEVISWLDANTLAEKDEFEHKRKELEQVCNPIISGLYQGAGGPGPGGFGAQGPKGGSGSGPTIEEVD
UniProt P11142: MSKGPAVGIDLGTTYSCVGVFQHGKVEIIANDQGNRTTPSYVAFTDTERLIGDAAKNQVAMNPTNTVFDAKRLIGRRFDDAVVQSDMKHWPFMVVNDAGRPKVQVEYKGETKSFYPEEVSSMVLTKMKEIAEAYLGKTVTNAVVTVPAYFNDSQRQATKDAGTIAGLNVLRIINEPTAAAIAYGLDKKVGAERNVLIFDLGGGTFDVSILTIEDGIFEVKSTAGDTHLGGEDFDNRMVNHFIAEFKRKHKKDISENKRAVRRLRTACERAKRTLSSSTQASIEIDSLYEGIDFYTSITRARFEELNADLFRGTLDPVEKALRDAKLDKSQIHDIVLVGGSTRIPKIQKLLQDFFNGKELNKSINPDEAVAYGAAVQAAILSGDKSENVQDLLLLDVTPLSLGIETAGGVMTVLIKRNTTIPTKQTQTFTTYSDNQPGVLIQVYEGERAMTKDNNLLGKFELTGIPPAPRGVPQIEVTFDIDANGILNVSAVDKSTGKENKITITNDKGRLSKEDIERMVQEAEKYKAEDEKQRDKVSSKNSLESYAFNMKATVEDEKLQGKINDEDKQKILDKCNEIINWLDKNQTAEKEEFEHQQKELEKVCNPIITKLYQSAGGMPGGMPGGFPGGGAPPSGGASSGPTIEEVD
UniProt P34932: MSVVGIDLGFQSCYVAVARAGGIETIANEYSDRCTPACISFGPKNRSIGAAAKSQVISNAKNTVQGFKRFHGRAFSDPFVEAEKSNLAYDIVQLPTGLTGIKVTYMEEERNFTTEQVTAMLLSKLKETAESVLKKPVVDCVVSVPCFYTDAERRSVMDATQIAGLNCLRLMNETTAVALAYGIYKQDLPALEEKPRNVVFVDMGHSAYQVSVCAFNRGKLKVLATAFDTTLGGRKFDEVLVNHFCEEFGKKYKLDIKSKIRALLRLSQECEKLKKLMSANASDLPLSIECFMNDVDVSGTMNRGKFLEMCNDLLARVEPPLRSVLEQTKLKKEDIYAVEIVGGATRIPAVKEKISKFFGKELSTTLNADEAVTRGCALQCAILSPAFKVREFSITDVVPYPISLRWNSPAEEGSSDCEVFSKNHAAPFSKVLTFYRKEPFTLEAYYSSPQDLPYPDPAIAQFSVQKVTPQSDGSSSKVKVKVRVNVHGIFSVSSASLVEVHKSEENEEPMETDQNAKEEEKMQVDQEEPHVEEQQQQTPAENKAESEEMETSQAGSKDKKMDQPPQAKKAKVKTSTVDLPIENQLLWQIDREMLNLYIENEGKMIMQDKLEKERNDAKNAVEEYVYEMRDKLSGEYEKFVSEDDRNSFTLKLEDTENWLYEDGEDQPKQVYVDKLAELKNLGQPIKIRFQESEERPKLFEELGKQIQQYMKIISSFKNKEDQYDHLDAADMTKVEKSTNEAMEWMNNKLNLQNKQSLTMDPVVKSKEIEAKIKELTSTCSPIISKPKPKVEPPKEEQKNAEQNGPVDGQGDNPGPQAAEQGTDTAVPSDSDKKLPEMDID
UniProt P08238: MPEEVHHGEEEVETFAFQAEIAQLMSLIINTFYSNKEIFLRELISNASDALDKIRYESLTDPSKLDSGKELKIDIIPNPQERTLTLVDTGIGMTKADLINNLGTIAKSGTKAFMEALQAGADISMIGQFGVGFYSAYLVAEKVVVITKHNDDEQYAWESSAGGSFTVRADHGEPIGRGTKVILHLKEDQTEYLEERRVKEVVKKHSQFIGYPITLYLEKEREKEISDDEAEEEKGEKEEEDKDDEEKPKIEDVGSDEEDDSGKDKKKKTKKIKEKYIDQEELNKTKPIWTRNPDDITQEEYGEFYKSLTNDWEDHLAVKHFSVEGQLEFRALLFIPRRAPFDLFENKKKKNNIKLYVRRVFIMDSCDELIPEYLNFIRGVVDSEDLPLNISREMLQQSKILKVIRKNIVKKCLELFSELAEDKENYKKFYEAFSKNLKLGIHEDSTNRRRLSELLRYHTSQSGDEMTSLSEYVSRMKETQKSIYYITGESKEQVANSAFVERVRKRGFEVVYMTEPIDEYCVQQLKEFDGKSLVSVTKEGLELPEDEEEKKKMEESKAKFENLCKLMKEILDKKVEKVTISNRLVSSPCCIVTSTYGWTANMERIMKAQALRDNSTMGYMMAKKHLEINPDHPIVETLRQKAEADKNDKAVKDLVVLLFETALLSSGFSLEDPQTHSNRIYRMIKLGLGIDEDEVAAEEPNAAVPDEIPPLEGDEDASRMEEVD
UniProt P63208: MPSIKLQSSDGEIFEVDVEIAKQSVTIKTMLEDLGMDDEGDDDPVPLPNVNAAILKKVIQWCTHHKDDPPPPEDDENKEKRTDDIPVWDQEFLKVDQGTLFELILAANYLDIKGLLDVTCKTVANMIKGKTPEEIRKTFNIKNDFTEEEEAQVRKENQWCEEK
UniProt O95816: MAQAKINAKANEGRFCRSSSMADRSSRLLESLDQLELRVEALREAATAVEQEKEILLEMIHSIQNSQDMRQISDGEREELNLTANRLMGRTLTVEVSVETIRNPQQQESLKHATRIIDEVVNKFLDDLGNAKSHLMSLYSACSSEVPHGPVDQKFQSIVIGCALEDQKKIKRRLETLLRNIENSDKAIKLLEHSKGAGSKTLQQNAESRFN

The test concerns the target T1, FBXL6-Flag (F-box/LRR-repeat protein 6, wild type) (human) (UniProt Q8N531).
T1 sequence: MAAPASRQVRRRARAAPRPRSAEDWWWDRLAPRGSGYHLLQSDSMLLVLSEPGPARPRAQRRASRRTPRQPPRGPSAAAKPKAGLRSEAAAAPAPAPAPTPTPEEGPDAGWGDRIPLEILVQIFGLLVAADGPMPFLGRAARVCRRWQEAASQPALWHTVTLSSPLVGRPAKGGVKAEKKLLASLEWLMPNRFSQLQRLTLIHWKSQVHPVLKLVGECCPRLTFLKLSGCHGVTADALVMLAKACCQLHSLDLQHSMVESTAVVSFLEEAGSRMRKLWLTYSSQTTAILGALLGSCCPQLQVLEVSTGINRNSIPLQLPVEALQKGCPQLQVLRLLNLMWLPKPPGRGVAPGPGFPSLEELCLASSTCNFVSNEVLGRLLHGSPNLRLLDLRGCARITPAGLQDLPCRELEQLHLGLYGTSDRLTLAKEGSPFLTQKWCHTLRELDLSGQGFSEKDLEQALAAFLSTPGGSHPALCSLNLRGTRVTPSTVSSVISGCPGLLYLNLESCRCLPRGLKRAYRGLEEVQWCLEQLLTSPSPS
Put plainly: affinity purification with mass spectrometry.

No constants are given. Whether binding was seen depends on the method and setting. In cells and extracts the contact can be indirect. These calls come from enrichment with a bait or labelling near it, and not all partners need be listed. Where a sequence is shown, tags or fusion partners need not be part of it.

“HSPA1A (heat shock protein A1A) (from UniProt P0DMV8 1-641)”: the binding result is recorded as “binds”. Turning to HSPA8 (from UniProt P11142 1-646), the binding entry is recorded as “binds”. For HSPA4 (from UniProt P34932 1-840) the value was “binds”; for HSP90AB1 (from UniProt P08238 1-724), “binds”. Consider SKP1 (from UniProt P63208 1-163), for which the binding result is given as “binds”. For BAG2 (from UniProt O95816 1-211), the binding entry is on record as “binds”.

B1: NEMF (protein, UniProt O60524 1-1076)
chain: MKSRFSTIDLRAVLAELNASLLGMRVNNVYDVDNKTYLIRLQKPDFKATLLLESGIRIHTTEFEWPKNMMPSSFAMKCRKHLKSRRLVSAKQLGVDRIVDFQFGSDEAAYHLIIELYDRGNIVLTDYEYVILNILRFRTDEADDVKFAVRERYPLDHARAAEPLLTLERLTEIVASAPKGELLKRVLNPLLPYGPALIEHCLLENGFSGNVKVDEKLETKDIEKVLVSLQKAEDYMKTTSNFSGKGYIIQKREIKPSLEADKPVEDILTYEEFHPFLFSQHSQCPYIEFESFDKAVDEFYSKIEGQKIDLKALQQEKQALKKLDNVRKDHENRLEALQQAQEIDKLKGELIEMNLQIVDRAIQVVRSALANQIDWTEIGLIVKEAQAQGDPVASAIKELKLQTNHVTMLLRNPYLLSEEEDDDVDGDVNVEKNETEPPKGKKKKQKNKQLQKPQKNKPLLVDVDLSLSAYANAKKYYDHKRYAAKKTQKTVEAAEKAFKSAEKKTKQTLKEVQTVTSIQKARKVYWFEKFLWFISSENYLIIGGRDQQQNEIIVKRYLTPGDIYVHADLHGATSCVIKNPTGEPIPPRTLTEAGTMALCYSAAWDARVITSAWWVYHHQVSKTAPTGEYLTTGSFMIRGKKNFLPPSYLMMGFSFLFKVDESCVWRHQGERKVRVQDEDMETLASCTSELISEEMEQLDGGDTSSDEDKEEHETPVEVELMTQVDQEDITLQSGRDELNEELIQEESSEDEGEYEEVRKDQDSVGEMKDEGEETLNYPDTTIDLSHLQPQRSIQKLASKEESSNSSDSKSQSRRHLSAKERREMKKKKLPSDSGDLEALEGKDKEKESTVHIETHQNTSKNVAAVQPMKRGQKSKMKKMKEKYKDQDEEDRELIMKLLGSAGSNKEEKGKKGKKGKTKDEPVKKQPQKPRGGQRVSDNIKKETPFLEVITHELQDFAVDDPHDDKEEQDLDQQGNEENLFDSLTGQPHPEDVLLFAIPICAPYTTMTNYKYKVKLTPGVQKKGKAAKTALNSFMHSKEATAREKDLFRSVKDTDLSRNIPGKVKVSAPNLLNVKRK
For B1, the binding result is “binds”.
